Data as given in PubChem BioAssay AID1508597 (Cure First, 2020)
Shown is an unselected part of the about 2,100 reagents, under one of the conditions tested. 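Calls flag viability under 80% in either arm, not effects specific to rucaparib; the reference for percent is not stated.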 A number with no mark means an inactive call. A reagent listed more than once was tested more than once; the source does not tell the runs apart. Not stated in the record: the 100% reference.

- Screen: 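Survival screen with siRNA in ovarian cancer cells derived from patients, with or without rucaparib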 (primary screen)
- System: human ovarian carcinoma lines grown from tumours: OCI-P5x (papillary serous) and OCI-C5x (clear cell)
- Knock-down reagent: siRNA pool against human genes, 1.25 pmol siRNA per well
- Time to read-out: 72 h or 96 h, depending on the cell culture
- Challenge: rucaparib 20 µM (about IC30) or vehicle, present until read-out
- Rucaparib or vehicle: Vehicle
- Cell line: OCI-P5x (serous)
- Detection: 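Luminescent ATP-based viability assay read 72 or 96 h after transfection, depending on culture, given as normalised percent viability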
- Direction: viability, normalised: higher = more viable cells remaining
- Hit rule: 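a well counts as a hit if its normalised viability is under 80 percent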
- Meaning of the calls: active = viability under 80%; inactive = viability 80% or more

gene knocked down,technical replicate,"viability, normalised (%)"
DCK (deoxycytidine kinase),1,91
DCK (deoxycytidine kinase),1,65.9 (active)
DCK (deoxycytidine kinase),2,79.7 (active)
DCK (deoxycytidine kinase),2,90.1
DCK (deoxycytidine kinase),3,65 (active)
DCK (deoxycytidine kinase),3,97.3
NANOG (Nanog homeobox),1,63.7 (active)
NANOG (Nanog homeobox),2,69.1 (active)
NANOG (Nanog homeobox),3,86.7
SOX21 (SRY-box transcription factor 21),1,28.6 (active)
SOX21 (SRY-box transcription factor 21),2,35.6 (active)
SOX21 (SRY-box transcription factor 21),3,44 (active)
FLT4 (fms related receptor tyrosine kinase 4),1,62.8 (active)
FLT4 (fms related receptor tyrosine kinase 4),1,83.1
FLT4 (fms related receptor tyrosine kinase 4),2,62.2 (active)
FLT4 (fms related receptor tyrosine kinase 4),2,86.6
FLT4 (fms related receptor tyrosine kinase 4),3,64.7 (active)
FLT4 (fms related receptor tyrosine kinase 4),3,76.7 (active)
HIRA (histone cell cycle regulator),1,87.2
HIRA (histone cell cycle regulator),2,89.3
HIRA (histone cell cycle regulator),3,72.3 (active)
NHERF1 (NHERF family PDZ scaffold protein 1),1,46.1 (active)
NHERF1 (NHERF family PDZ scaffold protein 1),2,43.2 (active)
NHERF1 (NHERF family PDZ scaffold protein 1),3,45.3 (active)

Sorted by “viability, normalised (%)” (high to low): 2 of the entries above
gene knocked down,technical replicate,"viability, normalised (%)"
DCK (deoxycytidine kinase),3,97.3
DCK (deoxycytidine kinase),3,65 (active)
